No constants are given. Whether binding was seen depends on the method and setting. In cells and extracts the contact can be indirect. Some binding calls cover weakened binding; strength is not graded here.

Chains of the proteins cited; added tags and fusions are not shown. Residues count along the entry.
UniProt Q13616: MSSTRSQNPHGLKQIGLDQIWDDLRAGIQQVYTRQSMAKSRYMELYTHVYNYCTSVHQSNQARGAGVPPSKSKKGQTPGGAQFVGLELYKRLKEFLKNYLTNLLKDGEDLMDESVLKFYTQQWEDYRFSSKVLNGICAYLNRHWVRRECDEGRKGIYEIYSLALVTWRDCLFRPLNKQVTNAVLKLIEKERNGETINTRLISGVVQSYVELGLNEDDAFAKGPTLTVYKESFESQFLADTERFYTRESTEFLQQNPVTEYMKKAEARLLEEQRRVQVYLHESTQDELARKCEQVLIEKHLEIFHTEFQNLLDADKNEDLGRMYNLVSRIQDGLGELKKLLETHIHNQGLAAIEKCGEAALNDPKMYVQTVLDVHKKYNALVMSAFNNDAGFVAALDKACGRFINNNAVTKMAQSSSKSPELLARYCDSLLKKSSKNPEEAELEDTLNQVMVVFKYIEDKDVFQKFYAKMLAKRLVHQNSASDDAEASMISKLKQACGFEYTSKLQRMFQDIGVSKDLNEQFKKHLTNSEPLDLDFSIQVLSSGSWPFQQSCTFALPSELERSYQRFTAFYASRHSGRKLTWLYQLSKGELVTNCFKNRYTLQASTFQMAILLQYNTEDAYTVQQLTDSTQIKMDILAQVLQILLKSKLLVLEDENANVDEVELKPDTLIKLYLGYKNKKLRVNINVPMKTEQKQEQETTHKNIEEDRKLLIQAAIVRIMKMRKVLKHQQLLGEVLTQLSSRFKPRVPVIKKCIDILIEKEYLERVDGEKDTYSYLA
UniProt Q14790: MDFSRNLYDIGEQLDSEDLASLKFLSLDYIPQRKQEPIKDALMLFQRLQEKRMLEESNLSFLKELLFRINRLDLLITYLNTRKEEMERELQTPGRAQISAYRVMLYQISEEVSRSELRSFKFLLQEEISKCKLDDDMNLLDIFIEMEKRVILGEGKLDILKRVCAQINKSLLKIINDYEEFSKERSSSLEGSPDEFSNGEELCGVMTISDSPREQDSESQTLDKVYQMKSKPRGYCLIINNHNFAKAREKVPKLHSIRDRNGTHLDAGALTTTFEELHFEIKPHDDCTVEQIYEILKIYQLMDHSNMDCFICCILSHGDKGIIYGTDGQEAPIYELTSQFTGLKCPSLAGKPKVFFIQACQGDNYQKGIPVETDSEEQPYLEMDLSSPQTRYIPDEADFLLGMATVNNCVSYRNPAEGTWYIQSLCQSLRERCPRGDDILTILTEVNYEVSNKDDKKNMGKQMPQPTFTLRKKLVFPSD
UniProt Q13158: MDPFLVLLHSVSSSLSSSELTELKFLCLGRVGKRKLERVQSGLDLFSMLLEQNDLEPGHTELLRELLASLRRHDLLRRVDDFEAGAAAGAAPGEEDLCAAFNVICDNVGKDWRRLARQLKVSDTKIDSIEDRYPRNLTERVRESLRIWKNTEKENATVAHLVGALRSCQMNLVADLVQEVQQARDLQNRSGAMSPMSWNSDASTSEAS
UniProt O14763, residues 56-440: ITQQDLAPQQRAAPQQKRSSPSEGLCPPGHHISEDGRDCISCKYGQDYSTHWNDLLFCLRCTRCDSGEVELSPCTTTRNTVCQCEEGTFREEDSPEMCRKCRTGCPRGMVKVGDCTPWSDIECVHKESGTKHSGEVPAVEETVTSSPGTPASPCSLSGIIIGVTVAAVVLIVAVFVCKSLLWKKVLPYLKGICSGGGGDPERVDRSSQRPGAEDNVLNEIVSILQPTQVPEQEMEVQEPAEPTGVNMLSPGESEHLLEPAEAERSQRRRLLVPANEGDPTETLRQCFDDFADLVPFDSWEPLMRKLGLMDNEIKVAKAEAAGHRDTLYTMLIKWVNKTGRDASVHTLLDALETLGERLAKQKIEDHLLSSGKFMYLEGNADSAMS
UniProt P63208: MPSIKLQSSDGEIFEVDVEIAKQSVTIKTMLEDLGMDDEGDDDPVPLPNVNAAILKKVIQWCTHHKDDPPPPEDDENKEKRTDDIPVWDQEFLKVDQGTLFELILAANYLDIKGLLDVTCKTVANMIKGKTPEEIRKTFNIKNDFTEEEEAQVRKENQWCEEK
UniProt Q13546: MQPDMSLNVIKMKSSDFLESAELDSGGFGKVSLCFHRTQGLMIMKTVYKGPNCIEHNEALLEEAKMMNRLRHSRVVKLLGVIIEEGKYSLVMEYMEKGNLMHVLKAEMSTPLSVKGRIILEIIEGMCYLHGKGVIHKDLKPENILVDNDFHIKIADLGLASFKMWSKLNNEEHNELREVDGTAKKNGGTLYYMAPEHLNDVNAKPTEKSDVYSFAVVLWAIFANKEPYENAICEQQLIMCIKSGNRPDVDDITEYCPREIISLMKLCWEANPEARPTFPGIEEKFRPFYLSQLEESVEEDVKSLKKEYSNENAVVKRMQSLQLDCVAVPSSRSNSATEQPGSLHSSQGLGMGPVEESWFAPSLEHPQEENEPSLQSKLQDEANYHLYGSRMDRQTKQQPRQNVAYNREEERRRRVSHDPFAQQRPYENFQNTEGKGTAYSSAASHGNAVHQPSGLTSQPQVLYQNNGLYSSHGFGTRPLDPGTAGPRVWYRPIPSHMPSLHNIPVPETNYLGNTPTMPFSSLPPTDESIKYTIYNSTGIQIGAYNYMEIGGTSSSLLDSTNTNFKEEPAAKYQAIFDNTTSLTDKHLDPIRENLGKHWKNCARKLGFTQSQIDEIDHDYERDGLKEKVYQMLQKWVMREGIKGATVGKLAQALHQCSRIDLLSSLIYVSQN

The first experiment concerns the target Myc-tagged Cullin-1 (UniProt Q13616). The experiment can be described thus: co-IP.
“Flag-tagged procaspase-8 (from UniProt Q14790 1-479)”: the binding result was “no binding”.

In the case of “endogenous caspase-8 (from UniProt Q14790 1-479)”, the binding entry was “no binding”.

“FADD (overexpressed, Figure 4C) (from UniProt Q13158 1-208)”: the binding result is on record as “no binding”.

“endogenous FADD (from UniProt Q13158 1-208)”: the binding entry was “no binding”.

A further experiment addresses TRAIL-R2 (DR5), endogenous on HCT116 cells (human (endogenous in HCT116)) (UniProt O14763). Put plainly: co-IP.
“endogenous Skp1 (from UniProt P63208 1-163)”: the binding result was “binds”.

Turning to “endogenous RIPK1 (from UniProt Q13546 1-671)”, the binding result is reported as “binds”.

Consider “endogenous FADD (from UniProt Q13158 1-208)”, for which the binding entry was “binds”.

For the origin of these results see article doi:10.1101/723718.
